From the supplement of paper PMC6411743 come the findings set out here.

Sequences of proteins named here, by UniProt entry; tags and fusion partners are left off. A change or cut given only in a name is not applied to a line headed by its entry.
UniProt Q8N8A2: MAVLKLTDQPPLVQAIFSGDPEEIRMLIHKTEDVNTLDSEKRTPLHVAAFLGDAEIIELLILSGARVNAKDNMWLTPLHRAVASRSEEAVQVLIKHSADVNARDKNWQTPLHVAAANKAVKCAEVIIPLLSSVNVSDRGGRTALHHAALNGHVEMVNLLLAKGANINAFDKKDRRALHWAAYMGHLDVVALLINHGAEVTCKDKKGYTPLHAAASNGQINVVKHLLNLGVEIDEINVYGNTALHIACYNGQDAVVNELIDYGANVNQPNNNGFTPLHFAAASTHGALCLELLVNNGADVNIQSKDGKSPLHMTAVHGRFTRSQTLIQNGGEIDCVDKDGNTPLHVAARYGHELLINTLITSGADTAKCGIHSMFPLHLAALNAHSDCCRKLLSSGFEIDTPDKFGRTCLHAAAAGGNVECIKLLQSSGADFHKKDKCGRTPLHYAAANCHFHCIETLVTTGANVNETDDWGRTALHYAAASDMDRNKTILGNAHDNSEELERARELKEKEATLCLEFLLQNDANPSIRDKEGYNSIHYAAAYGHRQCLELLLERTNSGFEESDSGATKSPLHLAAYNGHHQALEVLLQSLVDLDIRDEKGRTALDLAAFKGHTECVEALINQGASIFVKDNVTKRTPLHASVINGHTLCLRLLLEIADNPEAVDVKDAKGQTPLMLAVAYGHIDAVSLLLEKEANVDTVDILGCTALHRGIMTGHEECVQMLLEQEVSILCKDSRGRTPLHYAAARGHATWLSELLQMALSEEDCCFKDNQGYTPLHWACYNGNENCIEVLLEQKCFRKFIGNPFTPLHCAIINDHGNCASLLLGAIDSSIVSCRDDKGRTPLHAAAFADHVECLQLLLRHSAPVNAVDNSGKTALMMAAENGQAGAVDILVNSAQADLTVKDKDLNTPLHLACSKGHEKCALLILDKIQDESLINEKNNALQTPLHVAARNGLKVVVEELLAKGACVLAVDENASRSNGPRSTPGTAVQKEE
UniProt Q7Z6I8: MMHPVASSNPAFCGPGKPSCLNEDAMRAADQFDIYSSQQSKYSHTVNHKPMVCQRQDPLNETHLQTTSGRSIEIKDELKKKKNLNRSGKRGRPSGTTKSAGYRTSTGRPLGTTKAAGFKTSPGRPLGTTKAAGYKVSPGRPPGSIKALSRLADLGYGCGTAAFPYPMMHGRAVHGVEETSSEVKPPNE
UniProt Q86YV9: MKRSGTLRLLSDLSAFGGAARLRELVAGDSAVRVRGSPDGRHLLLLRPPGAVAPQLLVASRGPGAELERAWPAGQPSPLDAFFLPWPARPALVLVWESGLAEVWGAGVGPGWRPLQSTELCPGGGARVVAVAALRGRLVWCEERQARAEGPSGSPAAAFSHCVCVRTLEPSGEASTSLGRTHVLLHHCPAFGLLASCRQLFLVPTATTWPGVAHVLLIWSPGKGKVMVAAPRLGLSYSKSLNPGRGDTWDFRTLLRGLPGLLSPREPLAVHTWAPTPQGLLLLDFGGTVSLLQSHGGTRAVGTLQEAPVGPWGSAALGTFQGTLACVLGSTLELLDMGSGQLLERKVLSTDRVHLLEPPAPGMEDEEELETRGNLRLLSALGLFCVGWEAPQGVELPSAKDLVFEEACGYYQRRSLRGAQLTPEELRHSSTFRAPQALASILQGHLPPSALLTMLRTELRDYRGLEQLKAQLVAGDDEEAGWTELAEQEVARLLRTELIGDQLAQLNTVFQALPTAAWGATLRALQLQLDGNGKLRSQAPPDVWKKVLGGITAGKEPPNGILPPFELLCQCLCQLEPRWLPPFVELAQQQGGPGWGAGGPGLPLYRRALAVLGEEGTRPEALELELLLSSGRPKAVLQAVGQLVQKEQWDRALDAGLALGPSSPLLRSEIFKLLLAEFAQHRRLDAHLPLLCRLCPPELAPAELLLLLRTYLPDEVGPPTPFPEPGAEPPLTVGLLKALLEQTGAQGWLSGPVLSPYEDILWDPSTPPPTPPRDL
UniProt Q8N4S0: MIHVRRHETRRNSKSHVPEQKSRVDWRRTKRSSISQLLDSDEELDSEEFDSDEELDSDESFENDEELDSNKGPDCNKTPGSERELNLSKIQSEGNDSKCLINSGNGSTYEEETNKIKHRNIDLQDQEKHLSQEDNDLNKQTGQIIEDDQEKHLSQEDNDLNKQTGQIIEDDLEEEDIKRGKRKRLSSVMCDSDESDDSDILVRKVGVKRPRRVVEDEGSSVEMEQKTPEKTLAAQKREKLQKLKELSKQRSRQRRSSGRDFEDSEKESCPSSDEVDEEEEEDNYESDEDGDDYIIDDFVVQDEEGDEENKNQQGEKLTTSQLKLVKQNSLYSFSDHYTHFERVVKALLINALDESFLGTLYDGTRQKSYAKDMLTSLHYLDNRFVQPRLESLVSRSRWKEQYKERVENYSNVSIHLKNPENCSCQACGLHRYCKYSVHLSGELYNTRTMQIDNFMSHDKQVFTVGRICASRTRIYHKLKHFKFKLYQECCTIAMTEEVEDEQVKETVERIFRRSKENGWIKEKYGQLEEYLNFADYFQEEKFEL
UniProt Q8N2W9: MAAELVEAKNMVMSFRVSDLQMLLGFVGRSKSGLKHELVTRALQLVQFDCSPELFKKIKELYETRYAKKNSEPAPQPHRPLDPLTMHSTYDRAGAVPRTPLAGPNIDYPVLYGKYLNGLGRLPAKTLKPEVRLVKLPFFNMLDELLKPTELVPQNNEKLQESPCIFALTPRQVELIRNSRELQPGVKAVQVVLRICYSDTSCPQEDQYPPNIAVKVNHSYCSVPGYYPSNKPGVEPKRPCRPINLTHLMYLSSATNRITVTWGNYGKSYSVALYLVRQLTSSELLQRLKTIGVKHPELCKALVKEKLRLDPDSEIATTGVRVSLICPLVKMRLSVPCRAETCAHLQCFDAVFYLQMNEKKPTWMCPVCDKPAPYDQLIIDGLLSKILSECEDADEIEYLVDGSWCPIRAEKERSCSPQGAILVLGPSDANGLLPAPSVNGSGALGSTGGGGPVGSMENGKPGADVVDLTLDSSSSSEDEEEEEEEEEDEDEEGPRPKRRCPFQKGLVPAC
UniProt Q86X76: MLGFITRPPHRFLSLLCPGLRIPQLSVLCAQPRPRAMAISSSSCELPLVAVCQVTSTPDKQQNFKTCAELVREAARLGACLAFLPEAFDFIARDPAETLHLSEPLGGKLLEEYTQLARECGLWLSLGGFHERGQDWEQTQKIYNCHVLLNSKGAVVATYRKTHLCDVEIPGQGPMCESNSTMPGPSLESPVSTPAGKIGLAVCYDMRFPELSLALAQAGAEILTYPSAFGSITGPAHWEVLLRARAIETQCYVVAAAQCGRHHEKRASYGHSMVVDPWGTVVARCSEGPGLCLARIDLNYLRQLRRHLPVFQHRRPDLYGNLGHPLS
UniProt Q86YS7: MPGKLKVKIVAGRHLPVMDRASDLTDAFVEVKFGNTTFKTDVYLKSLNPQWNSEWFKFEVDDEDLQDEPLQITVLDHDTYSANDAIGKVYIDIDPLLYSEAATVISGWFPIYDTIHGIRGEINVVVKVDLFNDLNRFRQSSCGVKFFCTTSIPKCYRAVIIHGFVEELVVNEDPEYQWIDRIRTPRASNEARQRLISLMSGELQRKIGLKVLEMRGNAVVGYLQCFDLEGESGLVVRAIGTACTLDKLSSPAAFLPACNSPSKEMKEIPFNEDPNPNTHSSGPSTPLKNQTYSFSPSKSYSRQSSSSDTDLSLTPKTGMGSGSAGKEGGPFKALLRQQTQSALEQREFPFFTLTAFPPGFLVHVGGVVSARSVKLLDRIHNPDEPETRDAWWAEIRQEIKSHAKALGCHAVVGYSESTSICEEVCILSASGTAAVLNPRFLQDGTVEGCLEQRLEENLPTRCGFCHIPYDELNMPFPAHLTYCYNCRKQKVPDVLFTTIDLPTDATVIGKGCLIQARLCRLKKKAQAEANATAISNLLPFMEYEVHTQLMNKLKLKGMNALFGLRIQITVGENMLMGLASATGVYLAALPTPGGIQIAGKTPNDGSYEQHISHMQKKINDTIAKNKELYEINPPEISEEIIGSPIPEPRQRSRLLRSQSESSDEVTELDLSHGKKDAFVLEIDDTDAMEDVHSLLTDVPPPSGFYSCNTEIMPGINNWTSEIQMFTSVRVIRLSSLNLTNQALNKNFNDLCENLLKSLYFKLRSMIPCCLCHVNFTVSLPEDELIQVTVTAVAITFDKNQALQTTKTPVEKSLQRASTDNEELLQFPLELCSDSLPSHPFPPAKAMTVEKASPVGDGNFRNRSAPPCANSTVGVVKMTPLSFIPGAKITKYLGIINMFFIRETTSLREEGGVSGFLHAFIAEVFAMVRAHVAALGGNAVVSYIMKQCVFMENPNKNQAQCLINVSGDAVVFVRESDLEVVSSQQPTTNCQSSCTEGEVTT
UniProt Q86V48: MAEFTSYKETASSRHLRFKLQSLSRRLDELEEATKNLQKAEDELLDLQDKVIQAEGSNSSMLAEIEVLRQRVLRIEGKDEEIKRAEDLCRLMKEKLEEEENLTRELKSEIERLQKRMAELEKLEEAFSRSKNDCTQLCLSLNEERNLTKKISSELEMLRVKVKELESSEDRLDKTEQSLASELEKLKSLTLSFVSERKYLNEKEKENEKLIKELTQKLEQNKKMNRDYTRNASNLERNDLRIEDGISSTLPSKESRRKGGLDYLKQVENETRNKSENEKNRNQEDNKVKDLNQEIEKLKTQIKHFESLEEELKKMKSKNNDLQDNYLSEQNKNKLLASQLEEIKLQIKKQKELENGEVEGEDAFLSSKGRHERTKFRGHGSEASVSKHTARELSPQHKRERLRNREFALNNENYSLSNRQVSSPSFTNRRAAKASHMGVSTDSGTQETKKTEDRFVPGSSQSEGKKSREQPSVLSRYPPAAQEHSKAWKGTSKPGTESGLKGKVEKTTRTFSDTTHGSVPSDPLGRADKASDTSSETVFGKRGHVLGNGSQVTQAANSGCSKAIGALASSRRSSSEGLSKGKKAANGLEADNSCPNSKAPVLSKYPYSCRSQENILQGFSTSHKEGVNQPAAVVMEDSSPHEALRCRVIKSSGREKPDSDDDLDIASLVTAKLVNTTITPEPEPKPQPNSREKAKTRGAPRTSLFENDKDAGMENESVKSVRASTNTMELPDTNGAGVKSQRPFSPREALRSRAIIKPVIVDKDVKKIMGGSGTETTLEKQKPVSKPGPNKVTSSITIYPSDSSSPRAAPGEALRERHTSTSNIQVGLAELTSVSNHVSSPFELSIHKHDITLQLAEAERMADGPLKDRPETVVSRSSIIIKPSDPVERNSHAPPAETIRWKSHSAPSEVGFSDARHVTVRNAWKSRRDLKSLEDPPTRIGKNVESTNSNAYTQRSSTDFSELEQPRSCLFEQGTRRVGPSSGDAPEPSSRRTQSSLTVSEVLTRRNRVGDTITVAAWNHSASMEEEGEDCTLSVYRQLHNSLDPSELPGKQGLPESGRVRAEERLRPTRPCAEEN
UniProt Q8N1G2: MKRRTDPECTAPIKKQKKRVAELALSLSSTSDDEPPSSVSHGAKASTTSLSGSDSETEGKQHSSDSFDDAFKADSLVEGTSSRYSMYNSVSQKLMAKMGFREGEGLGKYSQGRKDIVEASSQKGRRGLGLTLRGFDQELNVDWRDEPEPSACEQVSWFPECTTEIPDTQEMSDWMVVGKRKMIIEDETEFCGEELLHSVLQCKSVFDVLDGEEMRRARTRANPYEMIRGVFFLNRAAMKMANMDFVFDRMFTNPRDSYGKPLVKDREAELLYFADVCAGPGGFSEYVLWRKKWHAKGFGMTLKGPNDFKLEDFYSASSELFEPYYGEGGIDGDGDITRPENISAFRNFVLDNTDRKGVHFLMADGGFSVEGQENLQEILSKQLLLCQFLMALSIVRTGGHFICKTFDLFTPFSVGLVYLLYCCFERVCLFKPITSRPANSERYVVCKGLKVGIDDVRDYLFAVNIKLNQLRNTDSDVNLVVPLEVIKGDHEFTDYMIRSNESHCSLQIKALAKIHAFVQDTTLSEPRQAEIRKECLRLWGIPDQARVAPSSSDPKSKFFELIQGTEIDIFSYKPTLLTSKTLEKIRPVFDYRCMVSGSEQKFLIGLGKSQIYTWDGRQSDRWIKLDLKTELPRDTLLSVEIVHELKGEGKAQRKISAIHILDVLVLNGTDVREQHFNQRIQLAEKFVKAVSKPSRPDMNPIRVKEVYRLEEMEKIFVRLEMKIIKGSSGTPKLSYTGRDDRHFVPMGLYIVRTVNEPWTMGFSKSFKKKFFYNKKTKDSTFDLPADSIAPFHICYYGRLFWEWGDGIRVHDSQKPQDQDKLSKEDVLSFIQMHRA
UniProt Q8IVB5: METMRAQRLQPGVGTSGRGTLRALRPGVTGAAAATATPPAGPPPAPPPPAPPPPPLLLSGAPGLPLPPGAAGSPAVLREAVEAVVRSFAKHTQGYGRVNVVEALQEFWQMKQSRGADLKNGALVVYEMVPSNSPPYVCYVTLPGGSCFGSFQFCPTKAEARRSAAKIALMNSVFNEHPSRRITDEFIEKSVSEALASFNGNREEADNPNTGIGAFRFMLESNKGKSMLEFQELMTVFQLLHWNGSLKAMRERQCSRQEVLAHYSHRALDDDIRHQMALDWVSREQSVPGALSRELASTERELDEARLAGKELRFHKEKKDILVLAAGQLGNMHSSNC

± gives the standard deviation of the averaged measurements. The list shows a part of the results, in another mix than the full data.

Compound in the assay: Nc1ncnc2c1ncn2[C@@H]1O[C@H](COP(=O)(O)OP(=O)(O)NP(=O)(O)O)[C@@H](O)[C@H]1O [adenylyl imidodiphosphate]
The assay is described as follows: NP40-soluble protein abundance relative to vehicle (solubility fold change) (ratio); higher = more soluble protein in presence of AMP-PNP. The conditions noted are these: concentration: 1mM. Put shortly: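 Jurkat crude lysate (Dounce-homogenised) was treated with eight concentrations from 0.1 to 10 mM for 10 min at room temperature, then 3 min at 37 °C. It was solubilised with 0.8% NP40 and benzonase (60 min, 4 °C) and ultracentrifuged, and the supernatant was TMT-labelled for LC-MS/MS. Intensities were vsn-normalised, and the value is the fold change against the NP40-processed vehicle per replicate, from three independent experiments.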
In the case of UniProt Q8N8A2 and related entries, the NP40-soluble protein abundance came to 0.995 ± 0.023.
The result for UniProt Q8N4L2 and related entries reads 0.974 ± 0.042.
For ZBTB2 (UniProt Q8N680) the value was 0.994 ± 0.042.
For PRPF39 (UniProt Q86UA1) the value was 0.987 ± 0.041; for UniProt Q86UE8-2|Q86UE8-3|J3QLK5, 1.039 ± 0.0045.
As for UniProt Q8N4J0, the NP40-soluble protein abundance worked out at 0.96 ± 0.036.
C5orf24 (UniProt Q7Z6I8): the NP40-soluble protein abundance amounted to 1 ± 0.033.
For UniProt Q86SK9 and related entries the value was 0.98 ± 0.03; for UniProt Q8N684 and related entries, 1.05 ± 0.036.
The result for UniProt Q8IUD2 and related entries reads 1 ± 0.027; that for UniProt Q8N1K5 and related entries, 0.974 ± 0.016.
For HPS6 (UniProt Q86YV9) the value was 0.9785 ± 0.0057; for CCDC82 (UniProt Q8N4S0), 1 ± 0.025.
Take RCOR2 (UniProt Q8IZ40): the NP40-soluble protein abundance came out at 0.965 ± 0.072.
For UniProt Q8IV53 and related entries the value was 0.994 ± 0.015; for DCUN1D3 (UniProt Q8IWE4), 1 ± 0.02; for UniProt Q8N5U6 and related entries, 0.977 ± 0.011.
The result for UniProt Q86X10 and related entries reads 0.979 ± 0.056; that for USP48 (UniProt Q86UV5), 1.01 ± 0.029; that for UniProt Q86TN4 and related entries, 1.024 ± 0.0098.
The result for UniProt Q8IZM8 reads 1.03 ± 0.015; that for UniProt Q8IYH5 and related entries, 0.966 ± 0.043.
For PIAS4 (UniProt Q8N2W9), the NP40-soluble protein abundance was 1 ± 0.05.
For ZNF579 (UniProt Q8NAF0) the value was 1.02 ± 0.069; for UniProt Q7Z7A1 and related entries, 0.986 ± 0.013; for UniProt Q8N4C8 and related entries, 1.05 ± 0.033.
The result for UniProt Q8N5C7 and related entries reads 1.02 ± 0.034; that for GCC2 (UniProt Q8IWJ2), 1.036 ± 0.0092.
For UniProt Q8NBJ4 and related entries the value was 1.02 ± 0.017.
With UniProt Q86X76 and related entries, the NP40-soluble protein abundance amounted to 1 ± 0.045.
The result for UniProt Q86YS7 reads 0.973 ± 0.015; that for UniProt Q86V48 and related entries, 1.04 ± 0.021.
With UniProt Q86U70 and related entries, the NP40-soluble protein abundance is 0.966 ± 0.028.
For UniProt Q8N1G2 the value was 0.976 ± 0.03; for UniProt Q8IUH4 and related entries, 0.971 ± 0.038.
The result for UniProt Q8N7H5 and related entries reads 1.01 ± 0.021.
LIX1L (UniProt Q8IVB5): the NP40-soluble protein abundance turned out to be 0.987 ± 0.016.
As to SRBD1 (UniProt Q8N5C6), the NP40-soluble protein abundance came out at 0.986 ± 0.018.
UniProt Q8NBF6 and related entries: the NP40-soluble protein abundance was 0.964 ± 0.046.
The result for LRRC47 (UniProt Q8N1G4) reads 1 ± 0.025.
